# Test results taken from patent publication US5658916A, “Drug active on the central nervous system, a process for the preparation thereof and pharmaceutical compositions containing it” (Vita-Invest, S.A., priority 1994, dated 1997).
# Biological target: α1-adrenergic receptors
# Test: Displacement of 3H-prazosin binding to α1-adrenergic receptors (rat brain cortex)
# Details: read-out: Displacement (Ki, nM) of the binding of 3H-prazosin to α1-adrenergic receptors, 3H-prazosin 0.5 nM, 37° C., 15 min, pH 7.7
# Description: Binding to at adrenergen receptors
# These were carried out as described by Morrow et al . […] Rat brain cortical tissue was obtained, with homogenization in 20 volumes of Tris-HCl buffer in ice (50 mM, pH=7.7, 4° C.). The homogenate was centrifuged (25,000 rpm/12 min at 4° C.) and the pellet was rehomogenized, being finally resuspended in 50 mM Tris-HCl buffer, pH=7.7 (dilution 1:200). […] The incubation (37° C., 15 min) was terminated by rapid filtering through Whatman GF/C filters, followed by washing twice with […] of Tris-HCl buffer, 50 mM.
smiles,measurement,value
Cc1nc2n(c(=O)c1CCN1CCC(c3noc4cc(F)ccc34)CC1)CCCC2 [Risperidone],Ki,7.1 nM
